Residue numbers refer to the chain shown, from its start. In names and notes the source's numbering stands. These are yes or no findings as the source states them, for the method shown. Some binding calls cover weakened binding; strength is not graded here.
Key:
GST-CEACAM1 [1] = molecular target: T1, GST-CEACAM1 (human, UniProt P13688 35-141, limits assumed); assay: phage ELISA on GST-CEACAM1
T1 construct: also called human CEACAM1-GST protein
T1 sequence: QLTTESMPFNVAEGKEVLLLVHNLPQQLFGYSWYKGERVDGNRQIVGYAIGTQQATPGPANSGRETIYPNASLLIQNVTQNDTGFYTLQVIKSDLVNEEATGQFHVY

GST-CEACAM1 [2] = molecular target: T1, GST-CEACAM1; assay: phage ELISA on plate-bound GST-CEACAM1, anti-M13-HRP and TMB
GST-CEACAM1 [3] = molecular target: T1, GST-CEACAM1; assay: scFv binding ELISA on GST-CEACAM1 coated at 1.0 µg/ml, anti-HIS6-HRP and TMB
Protocol: The binding of affinity matured purified scFv to human CEACAM1 was analyzed using GST-CEACAM1. A Nunc Immuno MaxiSorp 96 well flat bottom microtitre plate was pre-coated with 1.0 μg/ml GST-CEACAM1 overnight at 4° C. The following day a two-fold dilution series of VH1/Vκ8 S29A parent scFv or test scFv (50 μg/ml to 0.8 μg/ml) in PBSB was incubated for 2 hours at RT on pre-coated ELISA plates. The binding of scFv was detected with an anti-HIS6-HRP antibody and TMB substrate. The reaction was stopped with 3 M HCl, absorbance read at 450 nm on a Dynex Technologies MRX TC II plate reader and the binding curves plotted. Parent scFv (VH1/Vκ8 S29A scFv) was included on each ELISA plate as a reference. An irrelevant scFv was included on at least one plate as a negative control. It was observed that a number of scFvs had improved binding to CEACAM1 compared to the parental VH1/Vκ8 S29A scFv. […] All 34 scFv variants were reformatted to whole IgG to provide greater accuracy with regard to purity and quantitation. The reformatting further allowed for an analysis of the avidity component of antibody binding, which is influenced by the bivalent nature of IgGs. As used herein, “avidity” is the measure of the strength of binding between an antigen-binding molecule (such as an antibody or antibody fragment thereof described herein) and the pertinent antigen.

[4] = molecular target: T2, CEACAM1 on transfected HeLa cells (human, UniProt P13688 35-526); assay: flow cytometry, HeLa-CEACAM1 transfectants, % staining, stacked bars
T2 construct: also called HeLa-CEACAM1; HeLa C1
T2 sequence: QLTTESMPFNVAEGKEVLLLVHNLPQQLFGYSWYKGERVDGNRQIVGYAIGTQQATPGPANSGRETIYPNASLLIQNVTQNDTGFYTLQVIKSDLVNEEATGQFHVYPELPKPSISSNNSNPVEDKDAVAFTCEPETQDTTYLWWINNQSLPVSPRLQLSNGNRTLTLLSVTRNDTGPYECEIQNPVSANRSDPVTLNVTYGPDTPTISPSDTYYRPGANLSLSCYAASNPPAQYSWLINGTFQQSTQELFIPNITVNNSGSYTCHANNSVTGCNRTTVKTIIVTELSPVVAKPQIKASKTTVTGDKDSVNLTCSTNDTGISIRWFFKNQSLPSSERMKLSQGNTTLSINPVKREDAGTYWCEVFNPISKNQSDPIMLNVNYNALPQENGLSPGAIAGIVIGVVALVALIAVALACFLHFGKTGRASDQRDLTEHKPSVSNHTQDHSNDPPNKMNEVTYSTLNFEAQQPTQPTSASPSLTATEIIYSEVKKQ

[5] = molecular target: T2, CEACAM1 on transfected HeLa cells; assay: flow cytometry, HeLa-CEACAM1 transfectants, % positive cells
[6] = molecular target: FLAG-tagged CEACAM1 (human) (UniProt P13688); assay: Western blot of FLAG-tagged CEACAM1
[7] = molecular target: FLAG-tagged CEACAM1 (human) (UniProt P13688); assay: immunoblot of wild-type CEACAM1-FLAG from transfected cells, detected with the antibody
CEACAM-1 (Homo sapiens) = CEACAM-1 (Homo sapiens) (UniProt P13688); assay: three-point binding ELISA on coated CEACAM-1, anti-human kappa chain antibody and TMB
His-tagged CEACAM1 [8] = molecular target: T3, His-tagged CEACAM1 (human, UniProt P13688 35-428); assay: SPR and ELISA (FIGS. 12A-12C)
T3 construct: 45 kDa SPR analyte; also called CEACAM1-HIS; CEACAM1 analyte
T3 sequence: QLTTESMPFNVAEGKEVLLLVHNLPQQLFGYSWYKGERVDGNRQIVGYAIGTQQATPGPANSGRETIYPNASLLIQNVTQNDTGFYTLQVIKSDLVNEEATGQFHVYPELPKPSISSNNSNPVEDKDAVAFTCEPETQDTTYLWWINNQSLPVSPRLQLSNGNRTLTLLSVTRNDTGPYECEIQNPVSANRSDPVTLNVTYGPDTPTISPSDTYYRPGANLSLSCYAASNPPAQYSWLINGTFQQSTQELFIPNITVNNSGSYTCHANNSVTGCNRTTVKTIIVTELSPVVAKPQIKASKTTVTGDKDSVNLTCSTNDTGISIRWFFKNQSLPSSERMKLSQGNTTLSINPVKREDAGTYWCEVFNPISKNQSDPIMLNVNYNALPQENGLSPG

His-tagged CEACAM1 [9] = molecular target: T3, His-tagged CEACAM1; assay: SPR single-cycle kinetics, antibody captured on Protein A, CEACAM-1 injected at three rising concentrations

B1: parent VH1/Vκ8 S29A scFv displayed on phage (scFv, not shown: large carriers)
scFv: EVQLLESGGGLVQPGGSLRLSCAASGFIFSSHGMSWVRQAPGKGLEWVATISSGGTYTYYPDSVKGRFTISRDNSKNTLYLQMNSLKAEDTAMYYCARHDFDYDAAWFAYWGQGTLVTVSSGGGGSGGGGSGGGGSEIVLTQSPATLSLSPGERATLSCRANSAVSYMYWYQQKPGQAPRPWIYLTSNRATGVPARFSGSGSGTDYTLTISSLEPEDFAVYYCQQWSSNPPTFGQGTKLEIK
binding (GST-CEACAM1 [1]): binds
binding (GST-CEACAM1 [2]): binds

B2: CP09D03 (scFv)
scFv, VH-linker-VL: B1 scFv with I28T, G33A, M34I
binding (GST-CEACAM1 [3]): binds

B3: CP09A04 (scFv)
scFv, VH-linker-VL: B1 scFv with I28S, S30N, S31A, G33A
binding (GST-CEACAM1 [3]): binds

B4: CP09C02 (scFv)
scFv, VH-linker-VL: B1 scFv with G26E, I28T, S31D, G33A, D100G
binding (GST-CEACAM1 [3]): binds

B5: CP08A06 (scFv)
scFv, VH-linker-VL: B1 scFv with F27Y, I28S
binding (GST-CEACAM1 [3]): binds

B6: CP08C01 (scFv)
scFv, VH-linker-VL: B1 scFv with F27Y, I28S, S31N
binding (GST-CEACAM1 [3]): binds

B7: Parent (scFv)
scFv, VH-linker-VL: B1 scFv
binding (GST-CEACAM1 [3]): binds

B8: CP08B11 (scFv)
scFv, VH-linker-VL: B1 scFv with I28T, S30T, S31N
binding (GST-CEACAM1 [3]): binds

B9: CP08D01 (scFv)
scFv, VH-linker-VL: B1 scFv with I28T, S30N, S31A
binding (GST-CEACAM1 [3]): binds

B10: CP08C04 (scFv)
scFv, VH-linker-VL: B1 scFv with I28T
notes: purified scFv form; the IgG form is m90
binding (GST-CEACAM1 [3]): binds

B11: CP09F03 (scFv)
scFv, VH-linker-VL: B1 scFv with I28T, S30N, S31N
notes: purified scFv form; the IgG form is m63
binding (GST-CEACAM1 [3]): binds

B12: VH1/Vκ8 S29A (antibody, IgG4, V domains shown)
VH: EVQLLESGGGLVQPGGSLRLSCAASGFIFSSHGMSWVRQAPGKGLEWVATISSGGTYTYYPDSVKGRFTISRDNSKNTLYLQMNSLKAEDTAMYYCARHDFDYDAAWFAYWGQGTLVTVSS
VL: EIVLTQSPATLSLSPGERATLSCRANSAVSYMYWYQQKPGQAPRPWIYLTSNRATGVPARFSGSGSGTDYTLTISSLEPEDFAVYYCQQWSSNPPTFGQGTKLEIK
notes: IgG4 (S241P), kappa; also called Parent; Parent (VH1/Vκ8 S29A)
binding [4]: binds

B13: VH3/Vκ1 (antibody, IgG4, V domains shown)
VH: B12 VH with P61A, K87R
VL: QIVLTQSPALLSLSPGERATMSCSANSSVSYMYWYRQKPGQAPKPWIYLTSNLASGVPARFSGSGSGTDYTLTISSLEAEDFATYYCQQWSSNPPTFGQGTKLEIK
notes: IgG4 (S241P), kappa
binding [5]: binds
binding [6]: binds
binding [7]: binds

B14: chimeric antibody VH0/Vκ0 (antibody, IgG4, V domains shown)
VH: B12 VH with L5V, G10D, Q13K, R19K, S21A, A40T, G42D, G44R, S75D, A88S
VL: QIVLTQSPALMSASPGVKVTMTCSANSSVSYMYWYRQKPRSSPKPWIYLTSNLASGVPARFSGSGSGTSYSLTISSMEAEDAATYYCQQWSSNPPTFGSGTKLEIK
notes: IgG4 (S241P), kappa; also called VH0/Vκ0 (control); Chimeric VH0/Vκ0
binding (CEACAM-1 (Homo sapiens)): binds
binding [5]: binds
binding [6]: binds
binding (His-tagged CEACAM1 [8]): binds
binding (His-tagged CEACAM1 [9]): binds
binding [7]: binds

B15: VH1/Vκ8 (antibody, IgG4, V domains shown)
VH: B12 VH
VL: B12 VL with A28S
notes: IgG4 (S241P), kappa
binding [5]: binds
binding [6]: binds
binding [7]: binds

B16: VH4/Vκ1 (antibody, IgG4, V domains shown)
VH: B12 VH with A49S, P61A, K87R, M93V
VL: B13 VL
notes: IgG4 (S241P), kappa
binding [5]: binds
binding [6]: binds
binding [7]: binds

B17: CP08H03/CP08E05 (antibody, IgG4, V domains shown)
VH: B12 VH with D104F, A105P, A106Y, Y110H
VL: B12 VL with S91T, S92T
notes: IgG4 (S241P), kappa
binding [4]: binds

B18: 9B3_9E5/CP08E05 (antibody, IgG4, V domains shown)
VH: B12 VH with I28T, S30N, S31A, G33A, M34I, D100G
VL: B12 VL with S91T, S92T
notes: IgG4 (S241P), kappa
binding [4]: binds

B19: CP09C02/CP08F05 (antibody, IgG4, V domains shown)
VH: B12 VH with G26E, I28T, S31D, G33A, D100G
VL: B12 VL with S91T
notes: IgG4 (S241P), kappa
binding [4]: binds

B20: 8H3_9B3/CP08F05 (antibody, IgG4, V domains shown)
VH: B12 VH with I28T, S30N, S31A, G33A, M34I, D104F, A105P, A106Y, Y110H
VL: B12 VL with S91T
notes: IgG4 (S241P), kappa
binding [4]: binds

B21: CP08H03/CP08F05 (antibody, V domains shown)
VH: B12 VH with D104F, A105P, A106Y, Y110H
VL: B12 VL with S91T
notes: IgG4 (S241P), kappa
binding (CEACAM-1 (Homo sapiens)): binds
binding (His-tagged CEACAM1 [8]): binds
binding (His-tagged CEACAM1 [9]): binds
binding [4]: binds

B22: VH2/Vκ4 (antibody, IgG4, V domains shown)
VH: B12 VH with K87R
VL: B12 VL with A28S, V57I, V84T
notes: IgG4 (S241P), kappa
binding [5]: binds
binding [6]: binds
binding [7]: binds

B23: CP09C02/CP08E05 (antibody, IgG4, V domains shown)
VH: B12 VH with G26E, I28T, S31D, G33A, D100G
VL: B12 VL with S91T, S92T
notes: IgG4 (S241P), kappa
binding [4]: binds

B24: CP09B03/CP08E05 (antibody, IgG4, V domains shown)
VH: B12 VH with I28T, S30N, S31A, G33A, M34I
VL: B12 VL with S91T, S92T
notes: IgG4 (S241P), kappa
binding [4]: binds

Source: patent publication US20250074980A1 (BRIGHAM AND WOMEN S HOSPITAL, published 2025)
